According to article PMC5599796, “Structural insights into transcription initiation by yeast RNA polymerase I” (The EMBO Journal, 2017):
These are yes or no findings as the source states them, for the method shown. Some results given as binding are weak or reduced against the parent protein; the word gives no strength.

T1: Rrn7 (yeast, UniProt P40992 1-514)
T1 construct: Rrn7, TFIIB-like subunit of yeast Core Factor; Stood in the assay as a subunit of CF within the Pol I PIC; also called CF subunit Rrn7; TFIIB-related subunit Rrn7; source: E. coli BL21(DE3)Star pRARE, co-expressed as Core Factor, purified
T1 sequence: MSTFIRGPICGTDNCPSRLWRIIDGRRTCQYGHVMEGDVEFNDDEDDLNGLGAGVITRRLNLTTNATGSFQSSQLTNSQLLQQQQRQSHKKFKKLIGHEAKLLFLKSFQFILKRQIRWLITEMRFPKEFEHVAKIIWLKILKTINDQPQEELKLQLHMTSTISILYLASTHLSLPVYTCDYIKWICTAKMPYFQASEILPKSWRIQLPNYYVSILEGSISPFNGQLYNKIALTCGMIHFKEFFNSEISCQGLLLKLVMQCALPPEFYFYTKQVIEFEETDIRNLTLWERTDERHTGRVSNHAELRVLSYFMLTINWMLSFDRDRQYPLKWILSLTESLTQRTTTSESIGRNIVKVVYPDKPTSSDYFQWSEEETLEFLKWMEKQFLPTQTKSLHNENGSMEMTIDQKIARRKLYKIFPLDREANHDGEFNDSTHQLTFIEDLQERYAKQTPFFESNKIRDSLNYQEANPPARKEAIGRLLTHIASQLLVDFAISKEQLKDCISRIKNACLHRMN

T2: Rrn6 (yeast) (UniProt P32786)
T2 sequence: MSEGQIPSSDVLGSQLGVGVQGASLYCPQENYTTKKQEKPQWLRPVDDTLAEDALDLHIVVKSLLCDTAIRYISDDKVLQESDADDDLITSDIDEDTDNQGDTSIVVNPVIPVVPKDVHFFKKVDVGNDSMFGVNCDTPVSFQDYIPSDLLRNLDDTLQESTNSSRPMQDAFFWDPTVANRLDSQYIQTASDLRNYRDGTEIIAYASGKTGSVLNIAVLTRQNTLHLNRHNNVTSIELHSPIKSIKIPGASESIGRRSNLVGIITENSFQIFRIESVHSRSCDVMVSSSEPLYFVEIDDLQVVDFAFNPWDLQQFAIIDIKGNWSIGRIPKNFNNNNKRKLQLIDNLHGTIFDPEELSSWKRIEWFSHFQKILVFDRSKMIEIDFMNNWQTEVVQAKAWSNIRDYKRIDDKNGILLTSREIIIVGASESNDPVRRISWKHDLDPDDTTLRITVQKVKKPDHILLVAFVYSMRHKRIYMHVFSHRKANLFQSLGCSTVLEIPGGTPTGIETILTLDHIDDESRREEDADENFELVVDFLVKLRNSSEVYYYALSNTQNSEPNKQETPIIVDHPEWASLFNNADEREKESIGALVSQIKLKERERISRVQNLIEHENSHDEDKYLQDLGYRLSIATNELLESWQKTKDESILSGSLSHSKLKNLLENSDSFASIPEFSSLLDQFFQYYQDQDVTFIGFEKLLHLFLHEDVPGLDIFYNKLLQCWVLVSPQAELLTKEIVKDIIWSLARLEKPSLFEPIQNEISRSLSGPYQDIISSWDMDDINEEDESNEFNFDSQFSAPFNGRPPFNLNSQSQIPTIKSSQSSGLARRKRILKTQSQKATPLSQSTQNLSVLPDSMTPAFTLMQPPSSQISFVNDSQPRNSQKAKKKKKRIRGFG


Experiments:
[1] = target: T1, Rrn7; test: cryo-EM structure; Pol I (1.5 uM) and Rrn3 (3 uM) mixed 5 h at 4°C, then 70-bp transcription scaffold (-50 to +20, 15-nt mismatch, 10-nt RNA) 1 h, then CF (1.5 uM); dialysed from 300 to 100 mM potassium acetate, 50 mM HEPES-NaOH pH 7.5, 5 mM magnesium acetate, 10 mM DTT; 38,589 particles, 4.4 Å; both purified
[2] = target: T2, Rrn6 (yeast); test: as above
[3] = target: T1, Rrn7; test: cross-linking; purified Pol I PIC (50 ug, 1 mg/ml) with H12/D12 DSS at 2 and 5 mM, 30 min at 37°C; LC-MS/MS, xQuest, LD score at least 23; both purified

| binding [1] | binding [2] | binding [3] | Binder |
| --- | --- | --- | --- |
| binds | binds |  | Rrn11 (natural protein, yeast, Rrn11, subunit of yeast Core Factor; Stood in the assay as a subunit of CF within the Pol I PIC; also called CF subunit Rrn11; source: E. coli BL21(DE3)Star pRARE, co-expressed as Core Factor, purified) MFEVPITLTNRKFAQRRKLKYQYINYISRRFDRISKKSTTTDSLPTPENSAAENNDEEEGQNSEAGTYRRSVLQQKKRRRERHWRSVVGEIYSTTESETDSQEEETEEGGEHDTGIDKEDSDEERKFWKKYEKPEKSFEIWRTVSSQNKQPINKQKMTYHNFKKIEKIPLRKMEIPLLHCTKENKLYFQSISRGLEPLKTSTSEVRNYRTRHIVTLTDLLHLNVSRHNWSLAYKIFATLIRIPGVQIKSLWGIGVEILDNLSNSSSGLDFLQWMCQIYSSKSRFVQNINYRSIVPPFQTGSRTHTAKFAITYLWSSLINCQKSMEPSSNIIDKPFDTENDLLQELIDKISEWVLTPPFMEDAEVWFIYASCHLLKADTLSRQFVNDNKNNDLIGLDRDIKINQVIKHIHYVRTFLKICLDKGGFAVPSRLIENQLKSFESRLYGEAQDIQERDVANVYDSIDNSSVENSFGDVYETNAEFLDTQLMDLSPEDNGLDEMHYSDEDSSE |
|  |  | binds | Rrn6 (protein, UniProt P32786 1-894) MSEGQIPSSDVLGSQLGVGVQGASLYCPQENYTTKKQEKPQWLRPVDDTLAEDALDLHIVVKSLLCDTAIRYISDDKVLQESDADDDLITSDIDEDTDNQGDTSIVVNPVIPVVPKDVHFFKKVDVGNDSMFGVNCDTPVSFQDYIPSDLLRNLDDTLQESTNSSRPMQDAFFWDPTVANRLDSQYIQTASDLRNYRDGTEIIAYASGKTGSVLNIAVLTRQNTLHLNRHNNVTSIELHSPIKSIKIPGASESIGRRSNLVGIITENSFQIFRIESVHSRSCDVMVSSSEPLYFVEIDDLQVVDFAFNPWDLQQFAIIDIKGNWSIGRIPKNFNNNNKRKLQLIDNLHGTIFDPEELSSWKRIEWFSHFQKILVFDRSKMIEIDFMNNWQTEVVQAKAWSNIRDYKRIDDKNGILLTSREIIIVGASESNDPVRRISWKHDLDPDDTTLRITVQKVKKPDHILLVAFVYSMRHKRIYMHVFSHRKANLFQSLGCSTVLEIPGGTPTGIETILTLDHIDDESRREEDADENFELVVDFLVKLRNSSEVYYYALSNTQNSEPNKQETPIIVDHPEWASLFNNADEREKESIGALVSQIKLKERERISRVQNLIEHENSHDEDKYLQDLGYRLSIATNELLESWQKTKDESILSGSLSHSKLKNLLENSDSFASIPEFSSLLDQFFQYYQDQDVTFIGFEKLLHLFLHEDVPGLDIFYNKLLQCWVLVSPQAELLTKEIVKDIIWSLARLEKPSLFEPIQNEISRSLSGPYQDIISSWDMDDINEEDESNEFNFDSQFSAPFNGRPPFNLNSQSQIPTIKSSQSSGLARRKRILKTQSQKATPLSQSTQNLSVLPDSMTPAFTLMQPPSSQISFVNDSQPRNSQKAKKKKKRIRGFG |
